# Reference: PubChem BioAssay AID2685 (National Center for Advancing Translational Sciences (NCATS), 2010)
# The other results are listed elsewhere or left out. These are further read-outs of the screen, such as a control signal, another cell line or another target. No call is given for them. The list favours compounds with an active or inconclusive main result. Words in brackets tell the shape of the fitted curve; partial curves, single points and poor fits give uncertain potencies.
# Experiment: qHTS Assay for Lipid Storage Modulators in Drosophila S3 Cells;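 on cell number change: cells counted by Cell Tracker Red CMTPX staining in the red channel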
# Settings: BODIPY lipid droplet fluorescence, 18-24 h; for cell number change: measured here: cell count max response, cells fed with added oleic acid
# Method in brief: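 Drosophila S3 cells got compounds at several concentrations plus oleic acid (400 uM solution). Laser-scanning cytometry with 488 nm excitation read lipid droplets at 500-530 nm and cells at 575-640 nm. Percent activity was relative to 20 uM Triacsin C.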
# [1] = measured here: lipid fluorescence (Fed channel) AC50, cells fed with added oleic acid
# [2] = measured here: cell number channel AC50, cells fed with added oleic acid
Compound,cell number change [%],AC50 [1],AC50 [2]
O=C(CNC(=O)c1ccc2c(c1)OCCO2)N=Nc1c(O)[nH]c2ccccc12,13.4,"29.1 µM [rising, single point]",–
Cc1ccc(NC(=O)CCC(=O)OCC(F)(F)C(F)F)cc1,-0.156,"0.651 µM [falling, single point]",–
O=C(COC(=O)c1cc[n+]([O-])cc1)Nc1ccc(Br)cc1,36.3,"18.4 µM [rising, single point]","1.03 µM [rising, full curve, poor fit]"
CCCCOc1ccc(/C=C/C(=O)Nc2ccc([N+](=O)[O-])cc2C)cc1,-18.5,"0.116 µM [falling, full curve, poor fit]",–
COc1cc(NC(=S)NCCCN2CCOCC2)c(OC)cc1Cl,-5.08,–,–
CCN(CC)C(=O)N1CCC(NC(=O)c2ccc(C(C)(C)C)cc2)CC1,-55.9,"16.4 µM [falling, partial curve, poor fit]","4.61 µM [falling, partial curve, poor fit]"
C#CCSc1nnc(CNS(=O)(=O)c2ccc(Br)cc2)n1C,-9.84,"6.51 µM [rising, single point]",–
CC(Oc1ccc(Cl)cc1Cl)C(=O)NCCCn1ccnc1 (stereo not given),78.9,"16.4 µM [rising, partial curve]","29.1 µM [rising, single point]"
Cc1ccc(NC(=O)CSCC(=O)OCc2cc(=O)oc3cc(O)ccc23)c(C)c1,-5.02,"0.116 µM [rising, full curve, poor fit]",–
C[C@@H](C(=O)Nc1ccc2ccccc2c1)[C@@H]1C[C@@]1(C)[C@@H](NC(=O)c1cccnc1)c1ccccc1,9.24,"0.461 µM [rising, single point]",–
O=C(O)CC1C(=O)NCCN1Cc1cccs1 (stereo not given),18,"6.51 µM [falling, single point]","0.116 µM [falling, full curve, poor fit]"
CCC(=O)c1ccc(OCc2ccc(C(=O)OC)o2)c(OC)c1,-30.2,"29.1 µM [falling, partial curve, poor fit]","0.00461 µM [falling, full curve, poor fit]"
CC12CCC(c3c(C(=O)O)nn(-c4ccc(F)cc4)c31)C2(C)C (stereo not given),–,"23.1 µM [falling, single point]",–
COc1ccc(C(=O)N2CCCC(N3CCN(c4ccccc4F)CC3)C2)c(OC)n1 (stereo not given),11.3,–,–
Cc1ccc(-c2nnc(SCC(=O)NNC(=O)COc3cccc4ccccc34)n2C)cc1,-30.8,"5.17 µM [rising, full curve]",–
COc1c(Cl)cc(Cl)cc1/C=N/NC(=O)c1nnn(-c2nonc2N)c1CN1CCC(C)CC1,12.2,"0.58 µM [rising, single point]",–
CCOC(=S)SCC(=O)Nc1nc(-c2ccccc2)cs1,–,"16.4 µM [falling, partial curve]",–
CCOc1ccc(-c2cc3nc(C4CCN(C(=O)OC(C)(C)C)CC4)c(C(=O)O)cn3n2)cc1,-35.6,–,"20.6 µM [falling, single point]"
COc1ccccc1N(C)S(=O)(=O)c1ccc(C)c(C(=O)Nc2nccs2)c1,-1.47,–,–
COc1cccc(-c2c(C#N)c(N)nc3c2c(=O)nc2sccn23)c1,-22,"0.0326 µM [falling, full curve, poor fit]",–

# Molecules from the list above with a COOH group, in the order listed:
Compound,cell number change [%],AC50 [1],AC50 [2]
O=C(O)CC1C(=O)NCCN1Cc1cccs1 (stereo not given),18,"6.51 µM [falling, single point]","0.116 µM [falling, full curve, poor fit]"
CC12CCC(c3c(C(=O)O)nn(-c4ccc(F)cc4)c31)C2(C)C (stereo not given),–,"23.1 µM [falling, single point]",–
CCOc1ccc(-c2cc3nc(C4CCN(C(=O)OC(C)(C)C)CC4)c(C(=O)O)cn3n2)cc1,-35.6,–,"20.6 µM [falling, single point]"

# Further entries

Compound,cell number change [%],AC50 [1],AC50 [2]
COc1ccc(-c2nc(C#N)c(NCc3ccc(F)cc3)o2)cc1OC,-12,"0.0651 µM [rising, full curve, poor fit]",–
CC1(C)CC(=O)C(C(=O)C2CCN(S(=O)(=O)c3ccccc3)CC2)C(=O)C1,1.81,–,–
O=C1NN=C(c2ccc(Cl)cc2)CC1c1cccc(Br)c1 (stereo not given),–,"0.517 µM [rising, full curve]","6.51 µM [rising, single point]"
Cc1cc(C(=O)NNC(=S)NCC2CCCO2)cs1 (stereo not given),-18.6,"0.731 µM [falling, full curve, poor fit]",–
O=C(CCC(=O)N1CCSc2ccccc21)NC1CCCCC1,5.19,"6.51 µM [rising, single point]",–
Brc1cccc(CN2CCCCCCC2)c1,-9.72,–,"0.146 µM [falling, full curve, poor fit]"
CCOc1ccc(NC(=O)c2nsc(Cl)c2Cl)cc1,-8.83,–,"1.3 µM [falling, full curve]"
CCC(CC)C(=O)c1c[nH]c(C(=O)NCc2ccncc2)c1,6.39,–,"6.51 µM [rising, partial curve]"
COc1ccc(N(CC(=O)NCc2ccccc2)S(=O)(=O)c2c(C)noc2C)cc1,36.6,–,"14.6 µM [rising, partial curve, poor fit]"
CCN(CC)S(=O)(=O)c1ccc(OC)c(NC(=O)CSc2cc(Cl)ccc2Cl)c1,16.5,"1.64 µM [rising, full curve]",–
COc1ccccc1NC(=O)c1c(NC(=O)c2ccco2)sc2c1CCC2,-17.5,–,–
O=C(CNC1CCCCC1)Nc1cc(S(=O)(=O)N2CCOCC2)ccc1Cl,14.1,–,–
COC(=O)CNC(=O)c1c(-c2ccccc2Cl)noc1C,4.89,"5.8 µM [falling, single point]",–
O=C(CC(C(=O)O)C1CCCO1)NCCc1ccc2c(c1)OCO2 (stereo not given),-10.8,"2.31 µM [falling, partial curve, poor fit]",–
COC(=O)c1ccc(-c2nc3ccc(C)cc3o2)cc1,-0.2,–,–
CC(C)CN(C(=O)c1cccc(Cl)c1)c1c(N)n(Cc2ccccc2)c(=O)[nH]c1=O,-22.7,"29.1 µM [falling, partial curve, poor fit]",–
Cc1cccc(C)c1NC(=O)CCS(=O)(=O)c1cccc2nonc12,81,–,"29.1 µM [rising, partial curve, poor fit]"
COc1ccc(C2=NN(C(=O)CCC(=O)O)C(c3ccc(Br)cc3)C2)cc1 (stereo not given),10.4,"0.517 µM [rising, full curve]",–
O=C(CCCN1C(=O)/C(=C/c2cccs2)SC1=S)NNC(=O)c1ccc(F)cc1,-40.7,"2.31 µM [falling, full curve]","1.64 µM [falling, single point]"
